Molecules are shown by their SMILES. Structures were worked out from names or drawings and are uncertain.

Amino acid sequences for entries named in this document (tags omitted).
UniProt Q00534, whole entry: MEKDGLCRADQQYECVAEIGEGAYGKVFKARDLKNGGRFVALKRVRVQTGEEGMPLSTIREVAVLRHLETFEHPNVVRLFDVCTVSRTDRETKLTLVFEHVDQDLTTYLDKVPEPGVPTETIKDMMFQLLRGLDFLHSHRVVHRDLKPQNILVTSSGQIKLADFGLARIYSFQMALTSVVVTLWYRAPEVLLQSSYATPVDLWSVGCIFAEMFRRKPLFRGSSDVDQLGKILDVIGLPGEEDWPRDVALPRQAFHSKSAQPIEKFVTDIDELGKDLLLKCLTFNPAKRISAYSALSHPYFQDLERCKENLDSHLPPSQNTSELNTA
UniProt P24385, whole entry partner: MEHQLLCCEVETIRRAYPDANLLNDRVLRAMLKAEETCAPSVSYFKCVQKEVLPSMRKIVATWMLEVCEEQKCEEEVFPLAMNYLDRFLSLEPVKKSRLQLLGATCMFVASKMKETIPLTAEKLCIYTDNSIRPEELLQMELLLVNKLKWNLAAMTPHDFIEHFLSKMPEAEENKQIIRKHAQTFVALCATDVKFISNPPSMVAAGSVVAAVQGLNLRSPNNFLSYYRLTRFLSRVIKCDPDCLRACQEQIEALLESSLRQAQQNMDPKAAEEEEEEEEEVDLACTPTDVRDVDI

A word on the IC50: it is the concentration that gives 50% inhibition.

The target in one test is CDK6/CyclinD1 (Homo sapiens, UniProt Q00534). In words: In vitro cell-free CDK6/CyclinD1 kinase activity assay (TR-FRET). To be noted: read-out: IC50 (CDK6), ATP at Km. In general terms: In TR-FRET formats the signal depends on donor and acceptor labels being close together.
Another test deals with MCF-7 cells. Briefly: Cell viability assay, MCF-7 cells (CellTiter-Glo, 168 h). To be noted: read-out: IC50 (MCF-7). (In general: Cellular ATP, detected with luciferase, serves as a proxy for viable cell number.)

For `Cn1cc(-c2cc3cnc(Nc4ccc(N5CCNCC5)cn4)nn3c2C2=CCCC2)cn1`, the values for the half-maximal inhibitory concentration (IC50) at CDK6/CyclinD1 and with MCF-7 cells were under 100 nM and under 500 nM, respectively.

The values are drawn from patent US20230002393A1, “CDK KINASE INHIBITOR” (BEIJING BENICALL BIOTECH CO., LTD., priority 2019, published 2023).
